Values from PubChem BioAssay AID1259308 (NCATS, 2017)
Purpose: 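Knock-downs that increase output of a recombinant reporter protein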 (primary screen). System: human HEK293 embryonic kidney cells stably expressing firefly luciferase (HEK-CMV-Luc2-Hygro). Reagents: single siRNA against human genes, 0.8 pmol siRNA per well. Time to read-out: 72 h. Measured: 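Reporter luminescence and viable-cell signal on separate replicate plates, given as percent of non-targeting control and median/MAD z-scores, plus per-cell luciferase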. Direction: total luciferase, z-score and total luciferase, % of control: higher = more reporter protein produced. Call rule: 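Active when the median/MAD z-score for overall luciferase is greater than 3; a gene was taken forward for validation with new siRNAs if at least two of its three siRNAs passed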. Meaning of the calls: active = raised luciferase; inactive = no rise.
The whole screen tested about 59,000 reagents; this is a random part of them. About 1,510 of all reagents (2.6%) were called active. 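Calls use total luciferase alone and ignore viability, so some active siRNAs may act by altering cell number.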 Unmarked entries are inactive. Reagents against one gene are numbered here. Further read-outs or replicates are left out here.

target gene	reagent	total luciferase, z-score	total luciferase, % of control
SYF2	1	-1.3	56.1
SYF2	2	-0.691	68.1
SYF2	3	0.457	91
ZNF106	1	1.07	103
ZNF106	2	0.71	96
ZNF106	3	0.246	86.8
DDR1	1	-0.335	75.2
DDR1	2	0.0565	83
DDR1	3	-0.783	66.3
METTL26	1	0.848	98.8
METTL26	2	0.266	87.2
METTL26	3	-0.983	62.3
DCTN4	1	-0.529	71.4
DCTN4	2	-0.347	75
DCTN4	3	0.354	88.9
PTPRCAP	1	0.415	90.1
PTPRCAP	2	-0.634	69.3
PTPRCAP	3	1.31	108
RPL4	1	-1.54	51.2
RPL4	2	-2.39	34.4
RPL4	3	-2.71	28
IL36A	1	-0.464	72.7
IL36A	2	-0.594	70.1
IL36A	3	-2.42	33.8
COG6	1	-1.72	47.6
COG6	2	-0.0314	81.3
COG6	3	1.97	121

The list goes on; the last 7 above are carried over.
target gene	reagent	total luciferase, z-score	total luciferase, % of control
RPL4	3	-2.71	28
IL36A	1	-0.464	72.7
IL36A	2	-0.594	70.1
IL36A	3	-2.42	33.8
COG6	1	-1.72	47.6
COG6	2	-0.0314	81.3
COG6	3	1.97	121
GATA2	1	1.12	104
GATA2	2	0.146	84.8
GATA2	3	-1.14	59.2
CRIPTO	1	-0.635	69.2
CRIPTO	2	1.38	109
CRIPTO	3	-0.467	72.6
RYK	1	1.68	115
RYK	2	0.0582	83
RYK	3	0.0207	82.3
BEX2	1	1.16	105
BEX2	2	-1.01	61.9
BEX2	3	2.13	124
ISLR	1	-0.742	67.1
ISLR	2	-0.183	78.3
ISLR	3	-0.548	71
RPL7AP27	1	-2.76	27
RPL7AP27	2	-2.38	34.6
RPL7AP27	3	-2.85	25.2
GNPTG	1	-0.605	69.9
GNPTG	2	-0.725	67.5
GNPTG	3	-0.201	77.9
MED13	1	-0.916	63.7
MED13	2	-0.139	79.1
MED13	3	-0.201	77.9
NR2E1	1	-0.0103	81.7
NR2E1	2	-0.0747	80.4
NR2E1	3	-0.0311	81.3
TPRG1	1	0.274	87.3
TPRG1	2	-0.5	71.9
TPRG1	3	-1.79	46.3
